Measured values taken from article PMC11591864.

Key:
[1] = molecular target: CadR (MerR family Cd2+ regulator, apo) (Rubrivivax gelatinosus) (UniProt I0HLS8); test: EMSA; settings: 1 mM EDTA, heparin, protein 0-16 µg/µL, 50 mM Tris-HCl pH 7.5, 50 mM potassium acetate (AcK), 20% glycerol, 0.5 µg heparin, 5% gel in 0.5x TBE pH 7.6 at 4 °C, recombinant protein, protein details: His6 (pET-28b NdeI-BamHI, N-terminal implied), label: Cy5 on forward strand
[2] = molecular target: CopR (CueR-like MerR regulator, apo) (Rubrivivax gelatinosus) (UniProt L0EL98); test: EMSA; settings: 1 mM EDTA, heparin, protein 0-16 µg/µL, 50 mM Tris-HCl pH 7.5, 50 mM potassium acetate (AcK), 20% glycerol, 0.5 µg heparin, 1 h room …, 5% gel in 0.5x TBE pH 7.6 at 4 °C, recombinant protein, protein details: His6 (pET-28b NdeI-BamHI, N-terminal implied), label: Cy5 on forward strand

| Sequence | binding result ([1]; 1 h room …) | binding result [2] | binding result ([1]; much lower affinity, 1 h room temperature) |
| --- | --- | --- | --- |
| CCTTTCGTGTCCGACGCTTGACTCTAAACCCGCTACAGGGTCTGCAATGGCGGC (double strand) [PcadA (54 nt)] | binds | binds |  |
| TTCCGACAGCCCCGCGCTTGACCTTGCCATCGTGGCAAGGTCGACGATGGCTCCGGTCCACAATG (double strand) [PcopA (65 nt)] |  | binds | binds more weakly |

The exact form of at least one protein or probe is not confirmed. For some of these results: A weaker result is weaker than the reference pair of the same experiment.
